According to PubChem BioAssay AID504467 (National Center for Advancing Translational Sciences (NCATS), 2011):
The campaign covered roughly 330,000 compounds. About 7,700 (2.3%) were called active. Inconclusive results, whose numbers are uncertain, are shown with a selection of clear calls. Calls follow the shape of the dose curve; as a rule, active = well fitted inhibition curve with a large enough effect; inconclusive = small, poorly fitted or top-dose-only effect, or effect the other way; inactive = flat fitted curve, though single readings scatter. A potency beside an inconclusive call is a rough fit, not a confirmed value.

Test: qHTS screen for small molecules that inhibit ELG1-dependent DNA repair in human embryonic kidney (HEK293T) cells expressing luciferase-tagged ELG1; also: nearly all actives have a fitted effect of over 55% in size
Settings: HEK293T ELG1-luciferase reporter, luminescence, 16 h, DNA damage induced by 5-fluorouridine; activity change, negative = inhibition: at 46.1 µM (top of the series)
In short: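 In this reporter screen, reduction of luminescence relative to DMSO vehicle indicated activity. Compounds and 5-fluorouridine were added together to 2,000 cells per well, incubated for 16 hr at 37 °C, then developed with ONE-Glo.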
% is scaled to controls: 0 for no effect and ±100 for the full control effect; potency is read from the fitted curve at half-maximal effect.

Compound	Potency	activity change, negative = inhibition
O=C(NCc1ccco1)c1cc(-c2ccncc2)nc2ccccc12	inconclusive: 11.6 µM [inhibitor, partial curve]	
Cc1ccc(-c2nn(-c3ccc(F)cc3)cc2C(=O)NCCCN2CCCC2=O)cc1	inconclusive: 4.11 µM [inhibitor, single point]	
CCN(CC)S(=O)(=O)c1cccc(-c2nnc(SC(C)C#N)n2Cc2ccccc2)c1 (stereo not given)	inconclusive: 28.2 µM [inhibitor, single point]	
COc1ccccc1N1CCN(C(=O)CCc2ccc(S(=O)(=O)NC(C)C)cc2)CC1	inconclusive: 25.9 µM [inhibitor, single point]	
Cc1cccc(OCC(=O)Nc2nccs2)c1C	inconclusive: 1.46 µM [activator, full curve]	
C=CCn1c(O)c(N=Nc2ccccc2O)c2ccccc21		inactive: -29.3%
COc1ccc(-c2ccc(C#N)c(SCC(=O)Nc3sc4c(c3C#N)CCC4)n2)cc1		inactive: 14%
COc1ccc(CC2(CO)CCN(Cc3cccc(OC)c3OC)CC2)cc1		inactive: -3.83%
CCN1CCN(c2ccc(S(=O)(=O)N3CCOCC3)cc2NC(=O)C(C)Oc2ccc(F)cc2)CC1 (stereo not given)		inactive: -8.74%
COc1ccccc1CNC(=O)CSc1ccc(C)cc1		inactive: 8.57%
CSCC[C@H](NC(=O)c1cccc(S(=O)(=O)N2CCCCC2)c1)c1nc2ccccc2[nH]1	inconclusive: 18.3 µM [inhibitor, single point]	
N#C/C(=C\c1cn[nH]c1-c1ccc(Cl)cc1)C(=O)NCc1ccccc1	inconclusive: 14.6 µM [inhibitor, partial curve]	
Cc1cc(F)ccc1S(=O)(=O)N1CCCOC1CNC(=O)C(=O)NC1CCCCC1 (stereo not given)		inactive: 0.906%
COc1ccc(CC(=O)c2ccc(O)cc2O)cc1	inconclusive: 20.6 µM [activator, partial curve]	
Cc1ccc(NC(=S)N2CCN(C(=O)C3CCCO3)CC2)c(C)c1 (stereo not given)		inactive: 0.136%
COc1cccc(/C=C/C(=O)N2CCN(c3ccccn3)CC2)c1	inconclusive: 18.3 µM [activator, partial curve, poor fit]	
COc1ccc(C2=NOC(Cn3c(Cc4ccc(Cl)cc4)nc4c3c(=O)n(C)c(=O)n4C)C2)cc1 (stereo not given)	inconclusive: 12.6 µM [inhibitor, partial curve]	
COc1cc2cc(CN(C(=O)Nc3ccccc3)C3CCCC3)c(=O)[nH]c2cc1OC	inconclusive: 10.3 µM [inhibitor, partial curve]	
Cc1ccc(S(=O)(=O)N2CCOCC2)cc1N/N=C(\C#N)c1nc2ccccc2[nH]1	active: 8.2 µM	
N/C(=N\OC(=O)/C=C/c1ccc(Br)cc1)c1ccccn1	inconclusive: 3.26 µM [activator, partial curve]	
C(=N\Nc1nc(N2CCOCC2)nc(N2CCOCC2)n1)/c1ccncc1		inactive: -7.97%
CC(CCc1ccccc1)NC(=O)c1ccc(F)cc1 (stereo not given)		inactive: 19.9%
Cc1cc(C(=O)N2CCN(c3ccccc3O)CC2)c(C)o1		inactive: 23%
O=C(N/N=C/c1c(Cl)cccc1Cl)c1n[nH]c2c1CCCC2	inconclusive: 5.8 µM [activator, partial curve, poor fit]	

Two of these compounds in a different format.
Cc1cccc(OCC(=O)Nc2nccs2)c1C
  Potency: inconclusive: 1.46 µM [activator, full curve]
Cc1ccc(NC(=S)N2CCN(C(=O)C3CCCO3)CC2)c(C)c1 (stereo not given)
  activity change, negative = inhibition: inactive: 0.136%

Carrying on:

Compound	Potency	activity change, negative = inhibition
COc1cccc(-c2cc(C(F)(F)F)n3nc(C(=O)N4CCCCC4c4cccnc4)cc3n2)c1 (stereo not given)	active: 20.6 µM	
Cc1ccc(Cl)cc1NC(=O)c1cccc(OC(F)F)c1		inactive: -6.9%
O=C1CN(C(=O)COC(=O)COc2ccccc2)c2ccccc2N1		inactive: -9.77%
Cc1ccc(CN2CCN(CC(=O)NCCCN3CCN(c4ccc(F)cc4)CC3)C2=O)cc1	inconclusive: 11.2 µM [inhibitor, partial curve, poor fit]	
CC(C)n1ncc2c(C(=O)N3CCN(c4ccc(F)cc4)CC3)cc(-c3ccccc3)nc21	inconclusive: 13 µM [inhibitor, partial curve, poor fit]	
CCOc1ccccc1N(CC(=O)NC(C)(C)C)C(=O)CCC(=O)Nc1nccs1		inactive: 1.89%
O=C(NCc1cc(C(F)(F)F)ccc1Cl)c1cccc2c1C(=O)c1ccc(N3CCC(Cc4ccccc4)CC3)cc1S2(=O)=O		inactive: 8.86%
COc1ccc(N(C(=O)CCl)C(C(=O)NCCc2ccccc2)c2cccs2)cc1 (stereo not given)	inconclusive: 25.9 µM [inhibitor, partial curve]	
COC(=O)C1=C(C)N(Cc2ccccc2)C(=NCCc2ccccn2)N[C@H]1c1cccc(C(F)(F)F)c1		inactive: 11%
O=C(Nc1ccc(N2CCOCC2)nc1)c1ccc(C(F)(F)F)cc1	inconclusive: 5.8 µM [inhibitor, partial curve]	
O=C(NC(=O)c1ccccc1)Nc1ccc(Cl)cn1	inconclusive: 2.31 µM [activator, full curve]	
COc1ccc(N(CC(=O)NCCSC2CCCCC2)S(=O)(=O)c2ccccc2)cc1OC		inactive: -24.8%
Cc1ccnn1-c1ccc(C(=O)NCc2ccccc2CN2CCOCC2)cc1	inconclusive: 23.1 µM [inhibitor, partial curve]	
N#Cc1nc(Cc2cccc3ccccc23)oc1N1CCC(C(N)=O)CC1	inconclusive: 29.1 µM [inhibitor, single point]	
CCN1C(=O)[C@H]2[C@@H](c3ccc(-c4ccc(C(C)=O)cc4)c(OC)c3)N[C@@](Cc3ccccc3)(C(=O)OC)[C@H]2C1=O		inactive: 12.7%
CSc1ccc(C(=O)C2CCCN(S(=O)(=O)c3c(C)noc3C)C2)cc1 (stereo not given)	inconclusive: 18.3 µM [inhibitor, single point]	
c1ccc(Oc2c3ccccc3nc3ccccc23)cc1		inactive: -12.8%
CN(Cc1ccc(CNC[C@H]2O[C@@H](n3cnc4c(N)ncnc43)[C@H](O)[C@@H]2O)o1)S(C)(=O)=O	inconclusive: 20.6 µM [activator, single point]	
COCCN(C(=O)CCc1ccccc1OC)c1nnc(-c2cccnc2)s1	inconclusive: 23.1 µM [inhibitor, single point]	
C/[N+]([O-])=C\c1ccc([N+](=O)[O-])o1	inconclusive: 29.1 µM [inhibitor, single point]	
CC(=O)Nc1cccc(C(=O)NC2CCCc3c2cnn3-c2ccccc2F)c1 (stereo not given)		inactive: -4.39%
O=C(C1=C[C@@H](C2CC2)C[C@@H](OCc2ccc(CO)cc2)O1)N1CCN(Cc2ccccc2)CC1	inconclusive: 25.9 µM [inhibitor, single point]	
Cc1ccc(Nc2nc(CSc3nnc(-c4ccccc4)n3C)cs2)cc1	inconclusive: 11.6 µM [activator, partial curve]	
N#Cc1cnn2c(-c3ccc(Cl)cc3Cl)ccnc12		inactive: -4.6%

Compound	Potency	activity change, negative = inhibition
COc1cccc(CN2CCC(Oc3ccc(C(=O)N4CCCCC4)cc3)CC2)c1O	inconclusive: 23.1 µM [inhibitor, partial curve]	
CCOC(=O)c1ccc(NC(=O)c2sc3nc4n(c(=O)c3c2C)CCC4)cc1	active: 23.1 µM	
O=C(NN=C1CCCC1)c1sc2ccccc2c1Cl	inconclusive: 23.1 µM [inhibitor, single point]	
CC(C)(C)C1CCC(OCC(O)CN2CCN(Cc3ccccc3)CC2)CC1 (stereo not given)		inactive: -20.2%
COc1ccc(NC(=O)c2c(Cl)nc3ccccn23)cc1	inconclusive: 14.6 µM [activator, partial curve]	
CC(C)C[C@H](NC(=O)c1[nH]cnc1C(=O)N[C@@H](C)C(=O)OCc1ccccc1)C(=O)OC(C)(C)C		inactive: 19%
CCNc1nc(SCc2ccccc2)nc(N2CCOCC2)n1	inconclusive: 23.1 µM [inhibitor, single point]	
Nc1c(S(=O)(=O)c2cccs2)c2nc3ccccc3nc2n1Cc1ccccc1	inconclusive: 23.1 µM [inhibitor, partial curve]	
COC(=O)c1cc(CN2CCN(c3ccccc3C)CC2)ccc1O	active: 23.1 µM	
O=C(CN1N=C(c2ccc(Cl)cc2)CCC1=O)NCc1cccs1		inactive: 1.74%
CCCC(C)NC(=O)CSc1nc(-c2ccccc2)cn1N (stereo not given)	inconclusive: 29.1 µM [inhibitor, partial curve, poor fit]	
CCOc1ccccc1OCCCC(=O)NNC(=O)c1ccc(F)cc1	inconclusive: 25.9 µM [inhibitor, partial curve, poor fit]	
CCCn1c(NCc2c[nH]c3ccccc23)nc2ccccc21		inactive: 24%
CC(C)c1c(C(=O)N/N=C/c2cccc3ccccc23)nnn1-c1nonc1N	inconclusive: 29.1 µM [inhibitor, single point]	
O=C(c1ccc(OC2CCN(CCc3ccccc3)CC2)cc1)N1CCC(CO)CC1		inactive: 0.209%
CCCc1cc(=O)n2[nH]c(-c3ccc(Br)cc3)cc2n1	inconclusive: 11.6 µM [activator, partial curve]	
CC(=O)c1cccc(NC(=O)NCCc2c[nH]c3ccccc23)c1	inconclusive: 18.3 µM [inhibitor, single point]	
[O-][n+]1onc2c1CCc1nnc(-c3ccccc3)cc1-2	inconclusive: 16.4 µM [activator, partial curve, poor fit]	
COc1ccccc1C(CCNCc1ccccc1)c1ccc(OC(C)C)cc1 (stereo not given)	inconclusive: 5.8 µM [inhibitor, partial curve, poor fit]	
Cn1c(SCc2cccnc2)nnc1-c1c[nH]c2ccccc12	inconclusive: 16.4 µM [activator, single point]	
O=C(c1cc(-c2ccccc2)nc2ccccc12)N1CCc2ccccc2C1	inconclusive: 23.1 µM [inhibitor, single point]	
COc1ccc(-c2cc(C(F)F)n3ncc(C(=O)N4CCc5ccccc54)c3n2)cc1	active: 0.517 µM	
